Measurements published in article PMC11201311.
These are yes or no findings as the source states them, for the method shown. Binding seen in cells or lysates may run through a third protein. Some results given as binding are weak or reduced against the parent protein; the word gives no strength.

Amino acid sequences for entries named in this document (tags omitted). A change or cut given only in a name is not applied to a line headed by its entry.
UniProt P19484: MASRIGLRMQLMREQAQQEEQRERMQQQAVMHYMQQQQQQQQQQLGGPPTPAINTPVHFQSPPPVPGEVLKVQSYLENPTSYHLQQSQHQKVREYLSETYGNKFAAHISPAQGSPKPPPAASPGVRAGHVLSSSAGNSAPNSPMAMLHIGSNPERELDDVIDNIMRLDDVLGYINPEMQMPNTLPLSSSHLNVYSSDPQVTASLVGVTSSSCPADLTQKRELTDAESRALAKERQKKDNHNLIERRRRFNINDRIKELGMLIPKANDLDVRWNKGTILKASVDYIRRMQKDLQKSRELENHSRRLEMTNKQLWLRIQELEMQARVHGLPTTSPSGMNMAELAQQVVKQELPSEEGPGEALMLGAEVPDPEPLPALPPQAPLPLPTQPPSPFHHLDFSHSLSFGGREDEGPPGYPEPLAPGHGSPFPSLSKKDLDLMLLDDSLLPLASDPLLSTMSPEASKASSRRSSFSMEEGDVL
UniProt P61081: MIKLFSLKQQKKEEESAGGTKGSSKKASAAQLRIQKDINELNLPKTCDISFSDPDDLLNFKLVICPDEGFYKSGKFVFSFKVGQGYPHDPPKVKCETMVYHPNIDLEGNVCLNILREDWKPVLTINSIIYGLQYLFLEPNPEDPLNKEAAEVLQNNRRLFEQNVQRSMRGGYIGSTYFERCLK
UniProt Q14258: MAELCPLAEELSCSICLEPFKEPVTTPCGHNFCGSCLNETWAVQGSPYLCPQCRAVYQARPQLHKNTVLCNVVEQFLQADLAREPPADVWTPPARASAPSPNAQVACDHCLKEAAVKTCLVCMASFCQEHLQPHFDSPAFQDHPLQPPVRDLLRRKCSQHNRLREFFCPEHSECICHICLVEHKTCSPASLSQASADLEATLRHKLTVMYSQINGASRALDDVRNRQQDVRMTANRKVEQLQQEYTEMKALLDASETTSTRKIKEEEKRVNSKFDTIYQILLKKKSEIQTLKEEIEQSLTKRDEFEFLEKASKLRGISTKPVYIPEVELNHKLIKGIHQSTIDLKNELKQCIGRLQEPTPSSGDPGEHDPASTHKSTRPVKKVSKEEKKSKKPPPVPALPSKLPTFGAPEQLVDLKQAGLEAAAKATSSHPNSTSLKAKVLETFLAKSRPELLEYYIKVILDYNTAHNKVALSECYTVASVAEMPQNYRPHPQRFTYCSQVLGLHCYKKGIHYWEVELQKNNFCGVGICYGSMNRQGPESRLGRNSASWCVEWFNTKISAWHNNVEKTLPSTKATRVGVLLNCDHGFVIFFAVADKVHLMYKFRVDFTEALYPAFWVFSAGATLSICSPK

Assays:
[1] = biological target: transcription factor EB (TFEB), endogenous (human (endogenous in breast cancer cells)) (UniProt P19484); test: co-IP; MDA-MB-231 compared with PTX-resistant MDA-MB-231 cells; TRIM25-TFEB binding by Western blot
[2] = biological target: NEDD8 conjugating enzyme UBC12, endogenous (human (endogenous in breast cancer cells)) (UniProt P61081); test: co-IP; endogenous proteins in breast cancer cells; Co-IP buffer, antibodies with protein A/G magnetic beads overnight at 4 °C; Western blot
[3] = biological target: transcription factor EB (TFEB), endogenous (human (endogenous in breast cancer cells)) (UniProt P19484); test: as above
[4] = biological target: TFEB in the co-IP with TRIM25 wild type and K117R (UniProt P19484); test: co-IP; TRIM25 wild type or K117R and TFEB; Western blot

Row | Substance | binding [1] | binding [2] | binding [3] | binding [4]
1 | E3 ubiquitin ligase tripartite motif containing 25 (TRIM25), endogenous (from UniProt Q14258 1-630) (enzyme) | binds | binds | binds | –
2 | TRIM25 K117R (Myc-tagged) (from UniProt Q14258 1-630) (enzyme) | – | – | – | binds
3 | TRIM25 wild type, exogenous (Myc-tagged) (from UniProt Q14258 1-630) (enzyme) | – | – | – | binds
